This assay addresses T1, Strep-tagged latent human transforming growth factor-β2 (pro-TGF-β2) (human) (UniProt P61812).
T1 sequence: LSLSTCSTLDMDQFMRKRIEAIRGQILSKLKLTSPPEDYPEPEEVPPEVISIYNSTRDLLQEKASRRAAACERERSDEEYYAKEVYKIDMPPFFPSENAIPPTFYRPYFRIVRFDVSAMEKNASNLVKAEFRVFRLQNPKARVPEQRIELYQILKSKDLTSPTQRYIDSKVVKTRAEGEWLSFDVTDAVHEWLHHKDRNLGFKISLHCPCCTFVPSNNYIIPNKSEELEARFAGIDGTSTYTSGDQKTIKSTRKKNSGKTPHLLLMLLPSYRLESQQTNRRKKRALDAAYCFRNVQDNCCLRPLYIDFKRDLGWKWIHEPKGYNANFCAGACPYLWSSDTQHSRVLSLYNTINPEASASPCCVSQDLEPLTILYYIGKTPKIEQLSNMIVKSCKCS
Briefly: SPR; Strep-tagged pro-TGF-β2 (19.0 nM) captured on Streptactin XT on a CM5 chip; analytes injected in multicycle runs (4–600 nM authentic hα2M, 75–1,200 nM N-hα2M and C-hα2M); HBNS, 37 °C; both purified. A general note: SPR reads the build-up and loss of mass on a sensor chip optically.

No constants are given. Whether binding was seen depends on the method and setting. Tags and fused reporters may be left off the sequences shown.

B1: native authentic human α2-macroglobulin (protein, UniProt P01023 24-1474)
chain: SVSGKPQYMVLVPSLLHTETTEKGCVLLSYLNETVTVSASLESVRGNRSLFTDLEAENDVLHCVAFAVPKSSSNEEVMFLTVQVKGPTQEFKKRTTVMVKNEDSLVFVQTDKSIYKPGQTVKFRVVSMDENFHPLNELIPLVYIQDPKGNRIAQWQSFQLEGGLKQFSFPLSSEPFQGSYKVVVQKKSGGRTEHPFTVEEFVLPKFEVQVTVPKIITILEEEMNVSVCGLYTYGKPVPGHVTVSICRKYSDASDCHGEDSQAFCEKFSGQLNSHGCFYQQVKTKVFQLKRKEYEMKLHTEAQIQEEGTVVELTGRQSSEITRTITKLSFVKVDSHFRQGIPFFGQVRLVDGKGVPIPNKVIFIRGNEANYYSNATTDEHGLVQFSINTTNVMGTSLTVRVNYKDRSPCYGYQWVSEEHEEAHHTAYLVFSPSKSFVHLEPMSHELPCGHTQTVQAHYILNGGTLLGLKKLSFYYLIMAKGGIVRTGTHGLLVKQEDMKGHFSISIPVKSDIAPVARLLIYAVLPTGDVIGDSAKYDVENCLANKVDLSFSPSQSLPASHAHLRVTAAPQSVCALRAVDQSVLLMKPDAELSASSVYNLLPEKDLTGFPGPLNDQDNEDCINRHNVYINGITYTPVSSTNEKDMYSFLEDMGLKAFTNSKIRKPKMCPQLQQYEMHGPEGLRVGFYESDVMGRGHARLVHVEEPHTETVRKYFPETWIWDLVVVNSAGVAEVGVTVPDTITEWKAGAFCLSEDAGLGISSTASLRAFQPFFVELTMPYSVIRGEAFTLKATVLNYLPKCIRVSVQLEASPAFLAVPVEKEQAPHCICANGRQTVSWAVTPKSLGNVNFTVSAEALESQELCGTEVPSVPEHGRKDTVIKPLLVEPEGLEKETTFNSLLCPSGGEVSEELSLKLPPNVVEESARASVSVLGDILGSAMQNTQNLLQMPYGCGEQNMVLFAPNIYVLDYLNETQQLTPEIKSKAIGYLNTGYQRQLNYKHYDGSYSTFGERYGRNQGNTWLTAFVLKTFAQARAYIFIDEAHITQALIWLSQRQKDNGCFRSSGSLLNNAIKGGVEDEVTLSAYITIALLEIPLTVTHPVVRNALFCLESAWKTAQEGDHGSHVYTKALLAYAFALAGNQDKRKEVLKSLNEEAVKKDNSVHWERPQKPKAPVGHFYEPQAPSAEVEMTSYVLLAYLTAQPAPTSEDLTSATNIVKWITKQQNAQGGFSSTQDTVVALHALSKYGAATFTRTGKAAQVTIQSSGTFSSKFQVDNNNRLLLQQVSLPELPGEYSMKVTGEGCVYLQTSLKYNILPEKEEFPFALGVQTLPQTCDEPKAHTSFQISLSVSYTGSRSASNMAIVDVKMVSGFIPLKPTVKMLERSNHVSRTEVSSNHVLIYLDKVSNQTLSLFFTVLQDVPVRDLKPAIVKVYDYYETDEFAIAEYNAPCSKDLGNA
modifications: thioester bond intact (native form)
In the case of B1, the binding entry is “no binding (tested: 4–600 nM)”.

B2: methylamine-induced authentic human α2-macroglobulin (protein, UniProt P01023 24-1474)
chain: SVSGKPQYMVLVPSLLHTETTEKGCVLLSYLNETVTVSASLESVRGNRSLFTDLEAENDVLHCVAFAVPKSSSNEEVMFLTVQVKGPTQEFKKRTTVMVKNEDSLVFVQTDKSIYKPGQTVKFRVVSMDENFHPLNELIPLVYIQDPKGNRIAQWQSFQLEGGLKQFSFPLSSEPFQGSYKVVVQKKSGGRTEHPFTVEEFVLPKFEVQVTVPKIITILEEEMNVSVCGLYTYGKPVPGHVTVSICRKYSDASDCHGEDSQAFCEKFSGQLNSHGCFYQQVKTKVFQLKRKEYEMKLHTEAQIQEEGTVVELTGRQSSEITRTITKLSFVKVDSHFRQGIPFFGQVRLVDGKGVPIPNKVIFIRGNEANYYSNATTDEHGLVQFSINTTNVMGTSLTVRVNYKDRSPCYGYQWVSEEHEEAHHTAYLVFSPSKSFVHLEPMSHELPCGHTQTVQAHYILNGGTLLGLKKLSFYYLIMAKGGIVRTGTHGLLVKQEDMKGHFSISIPVKSDIAPVARLLIYAVLPTGDVIGDSAKYDVENCLANKVDLSFSPSQSLPASHAHLRVTAAPQSVCALRAVDQSVLLMKPDAELSASSVYNLLPEKDLTGFPGPLNDQDNEDCINRHNVYINGITYTPVSSTNEKDMYSFLEDMGLKAFTNSKIRKPKMCPQLQQYEMHGPEGLRVGFYESDVMGRGHARLVHVEEPHTETVRKYFPETWIWDLVVVNSAGVAEVGVTVPDTITEWKAGAFCLSEDAGLGISSTASLRAFQPFFVELTMPYSVIRGEAFTLKATVLNYLPKCIRVSVQLEASPAFLAVPVEKEQAPHCICANGRQTVSWAVTPKSLGNVNFTVSAEALESQELCGTEVPSVPEHGRKDTVIKPLLVEPEGLEKETTFNSLLCPSGGEVSEELSLKLPPNVVEESARASVSVLGDILGSAMQNTQNLLQMPYGCGEQNMVLFAPNIYVLDYLNETQQLTPEIKSKAIGYLNTGYQRQLNYKHYDGSYSTFGERYGRNQGNTWLTAFVLKTFAQARAYIFIDEAHITQALIWLSQRQKDNGCFRSSGSLLNNAIKGGVEDEVTLSAYITIALLEIPLTVTHPVVRNALFCLESAWKTAQEGDHGSHVYTKALLAYAFALAGNQDKRKEVLKSLNEEAVKKDNSVHWERPQKPKAPVGHFYEPQAPSAEVEMTSYVLLAYLTAQPAPTSEDLTSATNIVKWITKQQNAQGGFSSTQDTVVALHALSKYGAATFTRTGKAAQVTIQSSGTFSSKFQVDNNNRLLLQQVSLPELPGEYSMKVTGEGCVYLQTSLKYNILPEKEEFPFALGVQTLPQTCDEPKAHTSFQISLSVSYTGSRSASNMAIVDVKMVSGFIPLKPTVKMLERSNHVSRTEVSSNHVLIYLDKVSNQTLSLFFTVLQDVPVRDLKPAIVKVYDYYETDEFAIAEYNAPCSKDLGNA
modifications: thioester bond opened by methylamine, producing a free cysteine
For B2, the binding result is “no binding (tested: 4–600 nM)”.

Source of the values: publication PMC6591361.
